Earlier results, collected in patent US9351966B2, “Composition comprising a combination of omeprazole and lansoprazole, and a buffering agent, and methods of using same” (The Curators of the University of Missouri, priority 2008, dated 2016).
For some assays here: For at least one compound, name, drawing or mass did not settle the structure. Some entries share one result that the patent states for a list of compounds.

Key:
intragastric acidity = details: after a single dose of PPI (Day 1); 20 mg delayed release; cited from earlier work
gastric acid = details: fifth day of treatment; 30 mg dose of lansoprazole or 40 mg dose of omeprazole; cited from earlier work

| Structure (SMILES) | IGA-24Day 1 (intragastric acidity) [mmol·h/L] | duration of acid inhibitory effect (gastric acid) |
| --- | --- | --- |
| COCCCOc1ccnc(C[S+]([O-])c2nc3ccccc3[nH]2)c1C (centres unmarked) [Rabeprazole] | 331 | – |
| COc1ccc2[nH]c([S+]([O-])Cc3ncc(C)c(OC)c3C)nc2c1 (centres unmarked) [Omeprazole, 5-methoxy-2-[[(4-methoxy-3,5-dimethyl-2-pyridinyl)methyl]sulfinyl]-1H benzimidazole] | – | more than 24 hours |
